Test results reported in the supplement of paper PMC10849652.
The other results are listed elsewhere or left out.

By UniProt entry, the sequences of proteins in these tests, tags left out. Where a name states a change or a piece, a line headed by the entry shows the natural chain unless it says otherwise.
UniProt A2A3K4: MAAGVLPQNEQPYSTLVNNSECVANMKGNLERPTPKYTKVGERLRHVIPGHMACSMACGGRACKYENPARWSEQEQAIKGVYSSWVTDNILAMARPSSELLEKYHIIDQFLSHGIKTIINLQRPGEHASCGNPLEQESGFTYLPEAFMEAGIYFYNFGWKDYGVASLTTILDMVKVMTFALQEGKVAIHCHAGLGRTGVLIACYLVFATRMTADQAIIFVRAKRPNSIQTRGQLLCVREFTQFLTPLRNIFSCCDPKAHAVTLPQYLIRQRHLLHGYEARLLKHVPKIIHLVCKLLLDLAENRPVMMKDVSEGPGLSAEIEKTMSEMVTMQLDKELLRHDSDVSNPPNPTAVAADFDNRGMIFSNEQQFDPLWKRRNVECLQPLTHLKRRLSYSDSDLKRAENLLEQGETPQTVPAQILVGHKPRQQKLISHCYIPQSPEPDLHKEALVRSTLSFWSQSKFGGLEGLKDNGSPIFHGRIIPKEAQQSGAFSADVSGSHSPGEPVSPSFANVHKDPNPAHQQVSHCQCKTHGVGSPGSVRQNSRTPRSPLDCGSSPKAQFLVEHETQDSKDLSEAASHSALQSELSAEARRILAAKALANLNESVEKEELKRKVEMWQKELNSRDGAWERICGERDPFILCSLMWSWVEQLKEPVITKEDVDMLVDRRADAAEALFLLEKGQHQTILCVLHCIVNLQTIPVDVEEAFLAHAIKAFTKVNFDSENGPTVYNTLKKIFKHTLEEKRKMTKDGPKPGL
UniProt Q3MIT2: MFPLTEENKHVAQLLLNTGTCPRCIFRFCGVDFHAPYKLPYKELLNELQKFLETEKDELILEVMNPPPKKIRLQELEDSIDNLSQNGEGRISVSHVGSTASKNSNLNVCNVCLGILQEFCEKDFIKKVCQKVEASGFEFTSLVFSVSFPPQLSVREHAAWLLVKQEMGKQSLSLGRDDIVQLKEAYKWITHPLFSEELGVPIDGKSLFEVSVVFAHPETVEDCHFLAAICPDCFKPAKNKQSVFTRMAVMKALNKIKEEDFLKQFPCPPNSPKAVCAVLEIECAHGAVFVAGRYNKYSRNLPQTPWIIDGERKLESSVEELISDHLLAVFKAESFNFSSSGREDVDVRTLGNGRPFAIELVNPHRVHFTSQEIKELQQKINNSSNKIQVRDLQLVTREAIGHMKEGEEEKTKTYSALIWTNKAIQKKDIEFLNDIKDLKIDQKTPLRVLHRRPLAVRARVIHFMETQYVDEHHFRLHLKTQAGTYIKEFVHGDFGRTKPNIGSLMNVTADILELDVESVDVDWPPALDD
UniProt Q15397: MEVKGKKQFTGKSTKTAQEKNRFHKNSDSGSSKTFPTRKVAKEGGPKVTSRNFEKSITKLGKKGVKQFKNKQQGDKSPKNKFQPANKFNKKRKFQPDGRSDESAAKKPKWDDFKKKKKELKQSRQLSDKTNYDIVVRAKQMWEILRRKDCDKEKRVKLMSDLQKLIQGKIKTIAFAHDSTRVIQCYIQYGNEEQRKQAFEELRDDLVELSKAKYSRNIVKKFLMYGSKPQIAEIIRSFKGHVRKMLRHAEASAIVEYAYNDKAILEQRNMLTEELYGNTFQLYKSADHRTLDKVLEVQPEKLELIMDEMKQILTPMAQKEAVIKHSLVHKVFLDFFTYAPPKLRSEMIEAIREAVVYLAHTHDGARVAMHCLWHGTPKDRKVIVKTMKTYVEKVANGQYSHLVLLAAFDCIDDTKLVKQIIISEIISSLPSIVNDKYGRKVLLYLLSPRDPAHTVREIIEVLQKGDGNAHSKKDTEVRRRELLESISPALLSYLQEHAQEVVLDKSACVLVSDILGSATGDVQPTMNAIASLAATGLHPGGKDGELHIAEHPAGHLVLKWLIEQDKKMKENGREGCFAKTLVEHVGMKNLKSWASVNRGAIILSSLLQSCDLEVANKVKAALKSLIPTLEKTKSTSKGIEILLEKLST
UniProt P06454: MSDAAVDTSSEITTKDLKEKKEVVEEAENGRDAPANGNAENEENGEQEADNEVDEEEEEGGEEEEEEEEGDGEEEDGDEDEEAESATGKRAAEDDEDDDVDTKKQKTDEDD
UniProt Q96M27: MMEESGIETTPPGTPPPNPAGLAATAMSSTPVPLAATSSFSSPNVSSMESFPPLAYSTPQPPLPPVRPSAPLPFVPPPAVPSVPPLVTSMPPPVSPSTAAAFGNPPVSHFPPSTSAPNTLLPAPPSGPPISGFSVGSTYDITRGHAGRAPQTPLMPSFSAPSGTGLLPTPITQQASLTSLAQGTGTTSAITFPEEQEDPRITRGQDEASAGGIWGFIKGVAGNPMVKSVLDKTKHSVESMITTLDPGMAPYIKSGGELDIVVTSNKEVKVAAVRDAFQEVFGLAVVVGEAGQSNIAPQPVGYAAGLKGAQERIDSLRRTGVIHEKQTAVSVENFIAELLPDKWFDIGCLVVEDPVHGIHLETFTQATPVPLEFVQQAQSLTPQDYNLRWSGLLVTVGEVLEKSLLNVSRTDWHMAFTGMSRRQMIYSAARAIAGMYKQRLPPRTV
UniProt Q86TP1: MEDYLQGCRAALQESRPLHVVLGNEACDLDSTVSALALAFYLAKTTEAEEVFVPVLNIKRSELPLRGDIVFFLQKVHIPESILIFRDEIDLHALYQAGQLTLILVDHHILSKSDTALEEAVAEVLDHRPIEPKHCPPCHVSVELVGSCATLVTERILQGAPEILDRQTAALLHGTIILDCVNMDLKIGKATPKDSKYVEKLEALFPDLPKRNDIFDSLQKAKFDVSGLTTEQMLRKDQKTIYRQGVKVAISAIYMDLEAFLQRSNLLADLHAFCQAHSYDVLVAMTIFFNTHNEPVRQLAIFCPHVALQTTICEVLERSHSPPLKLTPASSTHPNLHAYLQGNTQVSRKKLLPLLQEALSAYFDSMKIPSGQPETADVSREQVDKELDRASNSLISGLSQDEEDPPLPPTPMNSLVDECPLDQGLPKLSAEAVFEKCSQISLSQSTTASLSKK
UniProt Q15185: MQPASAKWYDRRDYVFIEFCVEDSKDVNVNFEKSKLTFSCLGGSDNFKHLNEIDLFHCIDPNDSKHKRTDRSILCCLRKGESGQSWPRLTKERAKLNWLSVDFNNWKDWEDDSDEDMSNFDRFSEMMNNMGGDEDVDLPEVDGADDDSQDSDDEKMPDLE
UniProt Q6GMV3: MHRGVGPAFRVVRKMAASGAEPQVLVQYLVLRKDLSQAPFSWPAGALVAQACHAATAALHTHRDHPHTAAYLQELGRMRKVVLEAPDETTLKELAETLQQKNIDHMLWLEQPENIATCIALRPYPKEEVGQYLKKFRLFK
UniProt Q9Y617: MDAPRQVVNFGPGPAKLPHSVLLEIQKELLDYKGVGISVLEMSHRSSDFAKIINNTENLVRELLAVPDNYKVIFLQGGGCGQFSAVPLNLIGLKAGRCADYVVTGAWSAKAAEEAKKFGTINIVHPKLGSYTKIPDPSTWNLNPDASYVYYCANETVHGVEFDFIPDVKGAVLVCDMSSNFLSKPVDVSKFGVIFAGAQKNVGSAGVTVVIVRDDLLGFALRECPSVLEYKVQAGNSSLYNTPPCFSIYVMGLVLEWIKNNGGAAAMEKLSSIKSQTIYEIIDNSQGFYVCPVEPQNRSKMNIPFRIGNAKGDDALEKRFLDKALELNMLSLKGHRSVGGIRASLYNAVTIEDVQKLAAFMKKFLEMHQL
UniProt Q99460, whole entry, looked up: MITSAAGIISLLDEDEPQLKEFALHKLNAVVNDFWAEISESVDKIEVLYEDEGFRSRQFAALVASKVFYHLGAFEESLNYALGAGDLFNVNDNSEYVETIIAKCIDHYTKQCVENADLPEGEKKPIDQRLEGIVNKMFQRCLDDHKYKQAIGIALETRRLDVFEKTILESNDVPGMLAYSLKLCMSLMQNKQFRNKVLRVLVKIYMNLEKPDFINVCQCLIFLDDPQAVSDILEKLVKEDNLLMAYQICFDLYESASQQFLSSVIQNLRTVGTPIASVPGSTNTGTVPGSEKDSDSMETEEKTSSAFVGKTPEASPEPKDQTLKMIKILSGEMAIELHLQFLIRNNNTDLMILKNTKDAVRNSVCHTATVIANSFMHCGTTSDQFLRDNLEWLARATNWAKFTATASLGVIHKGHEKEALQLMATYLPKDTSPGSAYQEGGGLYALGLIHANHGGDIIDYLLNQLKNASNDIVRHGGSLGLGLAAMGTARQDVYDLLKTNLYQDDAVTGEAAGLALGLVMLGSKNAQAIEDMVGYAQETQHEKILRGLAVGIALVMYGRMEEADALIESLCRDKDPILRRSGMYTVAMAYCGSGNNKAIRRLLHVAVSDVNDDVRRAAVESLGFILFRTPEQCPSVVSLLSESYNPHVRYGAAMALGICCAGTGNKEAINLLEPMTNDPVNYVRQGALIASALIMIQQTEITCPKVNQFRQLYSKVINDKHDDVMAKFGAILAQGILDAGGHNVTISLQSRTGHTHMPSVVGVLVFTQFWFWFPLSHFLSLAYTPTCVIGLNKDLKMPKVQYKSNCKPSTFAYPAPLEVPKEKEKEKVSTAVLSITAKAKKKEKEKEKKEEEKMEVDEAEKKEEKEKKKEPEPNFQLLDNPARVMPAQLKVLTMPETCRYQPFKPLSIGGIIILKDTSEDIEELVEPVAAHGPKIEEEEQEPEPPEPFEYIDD
UniProt Q8TB72: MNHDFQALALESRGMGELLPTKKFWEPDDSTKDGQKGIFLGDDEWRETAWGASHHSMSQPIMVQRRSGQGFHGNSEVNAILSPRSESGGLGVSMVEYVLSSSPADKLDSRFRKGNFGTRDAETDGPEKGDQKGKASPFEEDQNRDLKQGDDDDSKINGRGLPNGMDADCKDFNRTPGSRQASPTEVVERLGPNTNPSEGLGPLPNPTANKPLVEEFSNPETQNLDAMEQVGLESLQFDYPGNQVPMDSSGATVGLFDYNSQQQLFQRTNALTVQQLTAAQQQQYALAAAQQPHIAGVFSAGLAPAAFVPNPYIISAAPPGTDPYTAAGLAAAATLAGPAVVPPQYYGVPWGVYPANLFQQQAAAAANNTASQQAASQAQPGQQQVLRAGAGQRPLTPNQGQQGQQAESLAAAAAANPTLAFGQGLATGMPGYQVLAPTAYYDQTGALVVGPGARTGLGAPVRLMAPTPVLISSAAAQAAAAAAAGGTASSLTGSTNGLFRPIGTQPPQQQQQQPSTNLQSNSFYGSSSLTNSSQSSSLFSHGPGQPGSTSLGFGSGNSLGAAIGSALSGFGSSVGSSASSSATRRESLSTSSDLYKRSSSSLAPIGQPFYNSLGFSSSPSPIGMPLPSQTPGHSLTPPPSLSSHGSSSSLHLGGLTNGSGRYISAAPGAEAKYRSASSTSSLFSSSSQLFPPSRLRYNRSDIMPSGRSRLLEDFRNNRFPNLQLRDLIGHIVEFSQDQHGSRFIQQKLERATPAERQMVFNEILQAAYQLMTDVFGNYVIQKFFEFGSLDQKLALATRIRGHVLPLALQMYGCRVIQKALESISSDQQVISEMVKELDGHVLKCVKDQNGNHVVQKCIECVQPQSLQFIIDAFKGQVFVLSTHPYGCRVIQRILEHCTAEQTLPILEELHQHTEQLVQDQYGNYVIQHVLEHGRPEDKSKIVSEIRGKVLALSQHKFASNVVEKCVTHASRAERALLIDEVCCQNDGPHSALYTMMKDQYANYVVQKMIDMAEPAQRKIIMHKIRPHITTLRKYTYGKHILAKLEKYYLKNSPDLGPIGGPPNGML
UniProt P40306: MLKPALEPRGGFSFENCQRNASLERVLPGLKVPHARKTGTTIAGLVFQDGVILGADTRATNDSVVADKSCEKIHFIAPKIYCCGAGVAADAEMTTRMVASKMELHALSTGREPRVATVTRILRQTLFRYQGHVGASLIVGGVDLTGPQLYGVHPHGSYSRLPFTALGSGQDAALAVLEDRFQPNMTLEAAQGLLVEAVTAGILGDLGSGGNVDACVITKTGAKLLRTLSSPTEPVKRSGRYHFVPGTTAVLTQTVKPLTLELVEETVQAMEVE
UniProt Q9BVG9: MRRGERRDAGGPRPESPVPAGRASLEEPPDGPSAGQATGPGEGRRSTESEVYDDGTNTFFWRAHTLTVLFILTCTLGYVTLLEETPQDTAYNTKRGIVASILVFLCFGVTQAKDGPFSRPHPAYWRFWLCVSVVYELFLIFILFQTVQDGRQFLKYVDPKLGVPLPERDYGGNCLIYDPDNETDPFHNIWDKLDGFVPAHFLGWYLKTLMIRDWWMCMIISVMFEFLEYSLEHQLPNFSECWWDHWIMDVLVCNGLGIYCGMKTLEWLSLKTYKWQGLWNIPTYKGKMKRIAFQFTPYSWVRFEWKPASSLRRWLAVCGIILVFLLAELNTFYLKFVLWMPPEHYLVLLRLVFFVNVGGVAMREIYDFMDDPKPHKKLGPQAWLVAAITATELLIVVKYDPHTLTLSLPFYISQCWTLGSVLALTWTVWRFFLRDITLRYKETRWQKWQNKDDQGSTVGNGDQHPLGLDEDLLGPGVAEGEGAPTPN
UniProt Q8TBF2: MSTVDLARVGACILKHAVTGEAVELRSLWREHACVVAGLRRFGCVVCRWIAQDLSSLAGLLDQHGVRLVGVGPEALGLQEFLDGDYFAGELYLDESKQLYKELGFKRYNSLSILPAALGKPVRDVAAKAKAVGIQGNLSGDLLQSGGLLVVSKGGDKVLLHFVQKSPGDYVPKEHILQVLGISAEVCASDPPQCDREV

How the values were obtained:
Test in all cases: log2 fold change, soluble protein after heating vs DMSO (PISA); higher = thermal stabilisation; K562 lysate, 10 uM; active = over 0.2 and 3.5 SD of the protein, either way, in both replicates (recomputed)
[1] = compound: C1=CC=C(C=C1)[C@H](COC2=CC3=C(C=C2)NC(=O)N3)NC(=O)C4=CC=CN(C4=O)CC5=CC(=C(C=C5)F)F
How it was run: (§1)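 K562 pellets were dounce-homogenised in PBS pH 7.4 containing 1 mM MgCl2, and the crude extract, at 1 mg/mL protein, was exposed to 10 μM compound for 30 min. Aliquots were heated for 3 min across 48°C-58°C, pooled, brought to 0.5% NP-40 at 4°C and spun at 21,000xg for 90 min, with the supernatant taken as soluble protein. TMTpro 16plex LC-MS/MS with equalised channel sums quantified that protein. Values are log-two fold changes in thermal stability relative to solvent controls, taken from duplicates.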

[2] = compound: CC1=C(SC2=C1C(=N[C@H](C3=NN=C(N32)C)CC(=O)N)C4=CC=C(C=C4)Cl)C
How it was run: as §1

[3] = compound: CC1=C2C(=CC=C1)N=C(N(C2=O)C3=CC=CC=C3C)CN4C=NC5=C(N=CN=C54)N
How it was run: as §1

[4] = compound: Cc1sc2c(c1C)C(c1ccc(Cl)cc1)=N[C@@H](CC(=O)OC(C)(C)C)c1nnc(C)n1-2
How it was run: as §1

[5] = compound: c1ccc([C@@H]2C[C@H]2NC2CCNCC2)cc1
How it was run: as §1

Measured: log2 fold change

PTPDC1 isoform 2 (UniProt A2A3K4)
inactive: [1] -0.005 | [2] 0.083 | [3] 0.063

PUS10 (UniProt Q3MIT2)
inactive: [1] 0.024 | [2] -0.027 | [3] -0.007 | [4] -0.04 | [5] 0.052

PTDSS1 (UniProt P48651)
inactive: [1] -0.142 | [2] 0.123 | [3] 0.095 | [4] 0.079 | [5] 0.002

PUM3 (UniProt Q15397)
inactive: [1] -0.049 | [2] 0.053 | [3] 0.055 | [4] 0.021 | [5] 0.08

PTMA isoform 2 (UniProt P06454)
inactive: [1] 0.098 | [2] -0.016

PTPN18 (UniProt Q99952)
inactive: [1] 0.009 | [2] -0.087 | [3] -0.013 | [4] 0.057

PRRC1 (UniProt Q96M27)
inactive: [1] 0.04 | [2] 0 | [3] 0.021 | [4] -0.014 | [5] -0.034

PRUNE1 (UniProt Q86TP1)
inactive: [1] 0.016 | [2] -0.013 | [3] 0.018 | [4] 0.034 | [5] -0.003

PSMA2 (UniProt P25787)
inactive: [1] 0 | [2] 0.029 | [3] -0.011 | [4] -0.014 | [5] 0.001

PSMD11 (UniProt O00231)
inactive: [1] 0 | [2] 0.013 | [3] -0.015 | [4] 0.04 | [5] 0.019

PTGES3 isoform 4 (UniProt Q15185)
inactive: [1] 0.099 | [2] -0.042

PTRHD1 (UniProt Q6GMV3)
inactive: [1] -0.044 | [2] 0.041 | [3] 0.086 | [4] -0.017 | [5] 0.132

PTPRA (UniProt P18433)
inactive: [1] 0.012 | [2] 0.071 | [3] 0.032 | [4] 0.003 | [5] 0.046

PSRC1 (UniProt Q6PGN9)
inactive: [1] -0.011 | [2] -0.014 | [3] -0.076 | [4] 0.084 | [5] -0.06

PSAT1 (UniProt Q9Y617)
inactive: [1] 0.011 | [2] -0.011 | [3] 0.028 | [4] 0.009 | [5] -0.018

PSME2 (UniProt Q9UL46)
inactive: [1] 0.058 | [2] -0.01 | [3] -0.001 | [4] -0.075 | [5] -0.103

PSMD1, A0A087WW66
inactive: [1] 0.021 | [2] 0.016

PSMG4 isoform 2 (UniProt Q5JS54)
inactive: [1] -0.078 | [2] -0.063 | [3] 0.067 | [4] 0.025 | [5] 0.098

PSMD1 (UniProt Q99460)
inactive: [1] 0.003 | [2] -0.017 | [3] 0.017 | [4] 0.018 | [5] 0.031

PUM2 (UniProt Q8TB72)
inactive: [1] -0.049 | [2] 0.027 | [3] -0.021 | [4] 0.021 | [5] 0.109

PSMB10 (UniProt P40306)
inactive: [1] -0.054 | [2] -0.128 | [3] -0.1 | [4] 0.07 | [5] -0.061

PSD4 (UniProt Q8NDX1)
inactive: [1] -0.043 | [2] 0.014 | [3] 0 | [4] 0.009 | [5] 0.01

PTDSS2 (UniProt Q9BVG9)
inactive: [1] 0.012 | [2] 0.05 | [3] 0.017 | [4] 0.026 | [5] -0.089

PRXL2B isoform 3 (UniProt Q8TBF2)
inactive: [1] -0.016 | [2] 0.128 | [3] 0.044 | [4] -0.064 | [5] 0.027

Fetched one by one from the list above, two records:
PUS10 (UniProt Q3MIT2)
inactive: [1] 0.024 | [2] -0.027 | [3] -0.007 | [4] -0.04 | [5] 0.052

PSMG4 isoform 2 (UniProt Q5JS54)
inactive: [1] -0.078 | [2] -0.063 | [3] 0.067 | [4] 0.025 | [5] 0.098

More records:

PTPA isoform 2 (UniProt Q15257)
inactive: [1] -0.004 | [2] 0.043 | [3] -0.007 | [4] 0.003 | [5] -0.003

PSMC6 (UniProt P62333)
inactive: [1] -0.011 | [2] 0.013 | [3] 0.013 | [4] 0.027 | [5] 0.018
